Source: PubChem BioAssay AID2685 (National Center for Advancing Translational Sciences (NCATS), 2010)
The campaign covered roughly 320,000 compounds. About 2,100 (0.66%) were called active. Inconclusive results, whose numbers are uncertain, are shown with a selection of clear calls. The call rests on the fitted dose curve; in most records, active means well fitted inhibition curve with a large enough effect in the signal ratio, with a control signal flat (not every such curve was filed as active); inconclusive means small, poorly fitted or top-dose-only effect, or effect the other way, or a change in a side signal; inactive means flat fitted curve, though single readings scatter; the % refers to the signal ratio. Where the call is inconclusive, the potency comes from a doubtful curve fit.

Assay: qHTS Assay for Lipid Storage Modulators in Drosophila S3 Cells
Details: BODIPY lipid droplet fluorescence, 18-24 h, cells fed with added oleic acid; lipid storage change, negative = inhibition: at 46.1 µM (top of the series) unless noted
How it was run: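 Laser-scanning cytometry quantifies lipid droplet accumulation (500–530 nm total intensity; droplet/cell object ratio) in oleic acid-fed (400 uM added) Drosophila S3 cells treated with a concentration series. 20 uM Triacsin C defined 100% inhibition.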
On the % scale 0 is the no-effect control and ±100 the full control effect; potency means the concentration at half of the fitted maximal effect.

| Compound | Potency | lipid storage change, negative = inhibition |
| --- | --- | --- |
| COc1ccc(NC2CCCN(C(=O)c3cc(C)nc4cc(F)ccc34)C2)cc1 (stereo not drawn) | inconclusive: 29.1 µM [activator, single point] |  |
| CC(C)c1ccc(N(CC(=O)NC2CCCCC2)C(=O)CCC(=O)Nc2ccccn2)cc1 |  | inconclusive: 2.05% |
| CCOc1ccc2nc(NC(=O)COC)sc2c1 |  | inconclusive: 83.8% |
| Cc1sc2ncnc(N3CCC(C(=O)Nc4ccc(Br)cc4Br)CC3)c2c1C | inconclusive: 2.31 µM [falling, full curve] |  |
| CCC(C(=O)NC1CCCCC1)N(C(=O)c1snc(C(N)=O)c1N)c1ccc(OC)cc1OC (stereo not drawn) | inconclusive: 0.116 µM [activator, partial curve, poor fit] |  |
| O=C(CCCN1C(=O)/C(=C\c2cccs2)SC1=S)Nc1ccc(O)cc1 | inconclusive: 1.46 µM [activator, partial curve, poor fit] |  |
| CCN(CC)CCNC(=O)c1ccc(NC(=O)c2ccc(Cl)c(S(=O)(=O)Nc3ccccc3OC)c2)cc1 |  | inconclusive: -10% |
| CCn1c(=S)sc2c(=O)n(CC(=O)Nc3ccc(OC)c(Cl)c3)c(C)nc21 |  | inconclusive: -15.6% |
| COc1ccc(-n2c(C)cc(C(=O)CSc3nn4c(=O)c(C(C)(C)C)nnc4s3)c2C)cc1 |  | inconclusive: 4.52% |
| COc1cc2c(cc1OC)/C(=C/C(=O)c1cccc([N+](=O)[O-])c1)NCC2 | inconclusive: 25.9 µM [activator, single point] |  |
| COc1ccccc1NC(=O)c1ccc(NC(=O)Cc2n[nH]c(=O)c3ccccc23)cc1 |  | inconclusive: -8.41% |
| Cc1ccc2[nH]c(=O)c(C(c3nnnn3CC3CCCO3)N3CCOCC3)cc2c1 (stereo not drawn) |  | inconclusive: -37.8% |
| COc1ccc(CC(=O)Nc2nnc(-c3cccc([N+](=O)[O-])c3)s2)cc1 |  | inconclusive: 0.761% |
| CCOC(=O)c1sc(-c2ccc(Br)cc2)cc1N |  | inconclusive: -45.2% |
| Cc1c(NC(=O)c2ccc(S(=O)(=O)N3CCOCC3)cc2)c(=O)n(-c2ccccc2)n1C |  | inconclusive: -21.3% |
| CCCCNC(=O)CCc1nc2cccnc2n1Cc1ccc(OC)cc1 | inconclusive: 14.6 µM [rising, partial curve] |  |
| O=C(CSc1nnc(NC(=O)C2CC(=O)N(c3ccc(F)cc3)C2)s1)NCC1CCCO1 (stereo not drawn) |  | inconclusive: 12.8% |
| CN1CCCN(C(=O)C2CCC(C(=O)N3CCCN(C)CC3)CC2)CC1 (stereo not drawn) |  | inconclusive: -18% |
| Cc1nnc(NC(=O)CSc2nnc(CC(=O)Nc3ccccc3F)n2C)s1 |  | inconclusive: -14.4% |
| O=C(/C=C/c1ccccc1)Nc1cccnc1Cl |  | inconclusive: -65.9% |
| N=c1n(CCO)c2ccccc2n1CCOc1ccc(Cl)cc1Cl |  | inconclusive: 5.91% |
| O=C(COC(=O)C1CCC1)NCc1ccccc1 |  | inconclusive: -4.27% |
| CN1CCN(C(=O)c2ccc(Cn3cc(Cl)cn3)o2)CC1 |  | inconclusive: -26.2% |
| COc1ccc(-c2c3c(nc4sc(C(=O)Nc5cc(C)on5)c(N)c24)CCC3)cc1 | inconclusive: 0.461 µM [activator, full curve] |  |
| CCN(CC)CCN1C(=O)C(=O)/C(=C(/O)c2ccncc2)C1c1ccccc1F (stereo not drawn) |  | inconclusive: -9.92% |
| Cc1cccn2c(/C=N/OCc3ccc(F)cc3)c(-c3ccc(Cl)cc3)nc12 |  | inconclusive: 7.25% |

| Compound | Potency | lipid storage change, negative = inhibition |
| --- | --- | --- |
| Cc1nnc(SCC(=O)NC23CC4CC(CC(C4)C2)C3)n(N)c1=O |  | inconclusive: 45.5% |
| CC(=O)NC(=S)Nc1ccc(N2CCOCC2)c(S(=O)(=O)Nc2cc(Cl)ccc2Cl)c1 |  | inconclusive: -28.5% |
| Cc1ccc(NC(=O)NNC(=O)c2cc3ccccc3cc2O)c(C)c1 |  | inconclusive: 26.3% |
| Cc1nnsc1S(=O)c1ccccc1Cl (stereo not drawn) |  | inactive |
| COc1ccc(-c2nnc(Nc3nc4c(OC)cccc4s3)o2)cc1 |  | inconclusive: -16.3% |
| CCOC(=O)C1=C(C)NC2=C(C(=O)CC(c3cccs3)C2)C1c1cccs1 (stereo not drawn) |  | inconclusive: -4.74% |
| O=C(O)Cc1n[nH]c(=O)c2ccccc12 |  | inconclusive: 6.81% |
| CN(CCCNS(=O)(=O)c1cccc2cccnc12)Cc1ccccc1 |  | inconclusive: 11.2% |
| Cc1cccc(OCC(=O)NCC(=O)N/N=C/c2ccccc2)c1 |  | inconclusive: 428% |
| Cn1cc(C(=O)C(=O)NC2CCCCC2)c2ccccc21 |  | inconclusive: 27.3% |
| COC(=O)CSc1nnc(CCc2ccccc2)n1C |  | inconclusive: -33% |
| CN(c1cccc(NC(=O)c2ccc(C(C)(C)C)cc2)c1)S(C)(=O)=O |  | inconclusive: -21.7% |
| Cc1ccc(C(=O)NCCC(=O)N2CCCC2)cc1 |  | inconclusive: 167% |
| CCOc1cc(/C=N/Nc2cc(C)nc3ccc(C)cc23)ccc1O |  | inconclusive: 52.3% |
| Cc1occc1C(=O)NNC(=S)NCc1ccccc1 | inconclusive: 0.146 µM [activator, full curve, poor fit] |  |
| COc1cc(NC(=O)C2CC2)c(C(=O)O)cc1OC | inconclusive: 5.17 µM [activator, single point] |  |
| CCCc1nnc(SCC(=O)Nc2nnc(CC)s2)n1CC1CCCO1 (stereo not drawn) |  | inconclusive: 169% |
| CC(/C=N/NC(=O)CN1CCN(Cc2ccc(Cl)cc2)CC1)=C\c1ccco1 |  | inconclusive: 6.44% |
| CCn1c(NCc2cc(OC)c(OC)c(OC)c2)nc2ccccc21 | inconclusive: 1.3 µM [activator, single point] |  |
| CCOc1cc(C(=O)Nc2nnc(CC)s2)ccc1OCC(=O)N1CCOCC1 |  | inconclusive: 0.965% |
| CCc1ccc(N2CCN(CCNC(=O)Nc3ccc(OC)cc3)CC2)cc1 |  | inconclusive: 55.6% |
| Cc1cc(C)n2c(Nc3ccc4c(c3)OCCO4)c(-c3ccco3)nc2n1 | inconclusive: 18.4 µM [activator, partial curve] |  |
| Cc1cccc(NC(=O)CN(C)S(=O)(=O)c2cccc3cccnc23)c1C | inconclusive: 0.13 µM [activator, full curve, poor fit] |  |
| Cc1cccc(-c2nc(=S)c3c(o2)CCCC3)c1 | inconclusive: 7.31 µM [activator, partial curve] |  |
| Cc1ccc(CNC(=O)c2cn(C)c3ccc(S(=O)(=O)N4CCOCC4)cc3c2=O)cc1 | inconclusive: 5.17 µM [falling, single point] |  |
| CCCCCCN(C(=O)CCl)c1ccccc1 |  | inconclusive: 24.1% |

| Compound | Potency | lipid storage change, negative = inhibition |
| --- | --- | --- |
| CN(CC(=O)Nc1c(Cl)cccc1Cl)C(=O)c1cccc(-n2cccc2)c1 |  | inconclusive: 35.2% |
| CC(C)=CCN1CCN(Cc2nc(-c3ccc(F)cc3)cs2)CC1CCO (stereo not drawn) |  | inconclusive: 4.79% |
| CCCCc1nc2cc(C(=O)N(C)C3CCOCC3)ccc2o1 | inconclusive: 29.1 µM [activator, single point] |  |
| CCCCC/C=C/C1=CC(=O)C[C@H](c2ccc(Cl)cc2)C1 |  | inconclusive: -47.3% |
| CC(c1nc2ccccc2c(=O)[nH]1)N1CCCN(S(=O)(=O)c2ccc(F)cc2)CC1 (stereo not drawn) |  | inconclusive: -2.52% |
| COc1cccc(CNC(=O)CN2C(=O)COc3ccc(S(=O)(=O)N4CCCCCC4)cc32)c1 | inconclusive: 3.66 µM [activator, full curve] |  |
| CC(C)C1=NOC(C(=O)N2CCC(N3CCC(C(=O)N4CCOCC4)CC3)CC2)C1 (stereo not drawn) |  | inconclusive: -8.48% |
| O=C(O)CCc1ccc(-c2cccs2)n1Cc1ccco1 | inconclusive: 0.13 µM [falling, full curve, poor fit] |  |
| COc1ccc(-c2cc(N)n(S(=O)(=O)c3ccc(F)cc3)n2)cc1OC | inconclusive: 0.517 µM [rising, full curve] |  |
| CCN1CCN(c2cc(C(C)(C)C)nc3c(-c4ccccc4)c(C)nn23)CC1 | inconclusive: 6.51 µM [activator, single point] |  |
| CCCCCCSC1=C(C#N)C(c2ccc(C)o2)CC(=O)N1 (stereo not drawn) |  | inconclusive: 82.4% |
| O=P(CCCO)(Cc1ccccc1)Cc1ccccc1 |  | inconclusive: 10.4% |
| O=c1cc(-c2ccccc2)oc2ccccc12 |  | inconclusive: 28.3% |
| O=C(CN1CCN(S(=O)(=O)c2ccc(Br)cc2)CC1)Nc1ccccc1C(=O)c1ccccc1 |  | inconclusive: -48.9% |
| CCc1cccc(NC(=O)Cn2c(=O)n(CCC(=O)NCC3CCCO3)c(=O)c3cc(OC)c(OC)cc32)c1 (stereo not drawn) |  | inconclusive: -151% |
| NC(=O)c1ccccc1NC(=O)c1ccc2ccccc2c1 |  | inconclusive: -66.6% |
| Cc1ccc(S(=O)(=O)NC2CC2)cc1 |  | inconclusive: -10.7% |
| COc1cccc(OCCOCCOc2ccc(C)cc2[N+](=O)[O-])c1 | inconclusive: 29.1 µM [falling, partial curve, poor fit] |  |
| Nc1ccccc1C(=O)N1CCc2ccccc21 |  | inconclusive: 97.6% |
| CSc1nc(-c2ccc(Cl)cc2)c(C#N)c(=O)n1C | inconclusive: 29.1 µM [cytotoxic, single point] |  |
| Cn1c(/N=C/c2cc(Cl)ccc2O)nc2ccccc21 | inconclusive: 0.58 µM [rising, single point] |  |
| C/C=C\C(=O)Nc1cccc(C2=NOC3(C2)C[C@@H](C(N)=O)N(C(=O)c2ccc(OC)cc2)C3)c1 (stereo partly drawn) |  | inconclusive: -5.57% |
| CCOC(=O)CNC(=O)CSc1nc(-c2ccc(OC)cc2)ns1 |  | inconclusive: 6.86% |
| CCC/C(O)=C1\C(=O)CCCC1=NCCc1ccc(OCC)c(OCC)c1 |  | inconclusive: 13.7% |
| COc1ccccc1-c1cc2nc(C)cc(C)n2n1 |  | inconclusive: -22% |
| COc1ccc([C@H]2CC(=O)C=C(c3cc4ccccc4c4ccccc34)C2)cc1 | inconclusive: 25.9 µM [falling, single point] |  |

A stretch from the list above:

| Compound | Potency | lipid storage change, negative = inhibition |
| --- | --- | --- |
| O=C(CN1CCN(S(=O)(=O)c2ccc(Br)cc2)CC1)Nc1ccccc1C(=O)c1ccccc1 |  | inconclusive: -48.9% |
| CCc1cccc(NC(=O)Cn2c(=O)n(CCC(=O)NCC3CCCO3)c(=O)c3cc(OC)c(OC)cc32)c1 (stereo not drawn) |  | inconclusive: -151% |
